This passage reports binding results from publication doi:10.1101/2020.04.07.030676.

These are yes or no findings as the source states them, for the method shown.

The assay addresses MEKK1 TOG domain, MEKK1(542–888) (human) (UniProt Q13233). The assay can be described thus: SEC-MALS. (In general: In gel filtration, larger molecules generally elute earlier.)

B1: MEKK1 TOG domain, MEKK1(542–888) (domain or fragment, UniProt Q13233 542-888)
chain: THYGTQQIPPAYKDLAEPWIQVFGMELVGCLFSRNWNVREMALRRLSHDVSGALLLANGESTGNSGGSSGSSPSGGATSGSSQTSISGDVVEACCSVLSMVCADPVYKVYVAALKTLRAMLVYTPCHSLAERIKLQRLLQPVVDTILVKCADANSRTSQLSISTLLELCKGQAGELAVGREILKAGSIGIGGVDYVLNCILGNQTESNNWQELLGRLCLIDRLLLEFPAEFYPHIVSTDVSQAEPVEIRYKKLLSLLTFALQSIDNSHSMVGKLSRRIYLSSARMVTTVPHVFSKLLEMLSVSSSTHFTRMRRRLMAIADEVEIAEAIQLGVEDTLDGQQDSFLQAS
B1: the binding entry is listed as “no binding”.
